# In the supplement of paper PMC10689618:
# Structures can show the parent of a compound that is named as a salt. The list shows a part of the results. Repeats are few or missing, and single values can be far off.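 Primary human fetal astrocytes engulfed labelled rat cortical synaptosomes, measured as a red/green ratio corrected for calcein live-cell signal and scaled to the plate median. Toxicity meant calcein falling over 30%; decreased phagocytosis meant below 70% of median above 5 µM.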
# Legend:
# Settings in all cases: 24 h
# Human fetal astrocytes [1] = assay: loss of total cells relative to no-compound high-control median (toxicity); higher = more toxic (fewer cells)
# Human fetal astrocytes [2] = assay: as above; remark: listed apart in the source
# Human fetal astrocytes [3] = assay: synaptosome phagocytosis (pHrodo/calcein intensity ratio) relative to plate median of data wells; higher = more phagocytosis
# Human fetal astrocytes [4] = assay: as above; remark: listed apart in the source
SMILES,loss of total cells (Human fetal astrocytes [1]; 1.39 µM) [%],loss of total cells (Human fetal astrocytes [1]; 2.78 µM) [%],loss of total cells (Human fetal astrocytes [1]; 5.56 µM) [%],loss of total cells (Human fetal astrocytes [1]; 11.11 µM) [%],loss of total cells (Human fetal astrocytes [1]; 22.22 µM) [%],loss of total cells (Human fetal astrocytes [2]; 1.39 µM) [%],loss of total cells (Human fetal astrocytes [2]; 2.78 µM) [%],loss of total cells (Human fetal astrocytes [2]; 5.56 µM) [%],loss of total cells (Human fetal astrocytes [2]; 11.11 µM) [%],loss of total cells (Human fetal astrocytes [2]; 22.22 µM) [%],synaptosome phagocytosis (Human fetal astrocytes [3]; 1.39 µM) [%],synaptosome phagocytosis (Human fetal astrocytes [3]; 2.78 µM) [%],synaptosome phagocytosis (Human fetal astrocytes [3]; 5.56 µM) [%],synaptosome phagocytosis (Human fetal astrocytes [3]; 11.11 µM) [%],synaptosome phagocytosis (Human fetal astrocytes [3]; 22.22 µM) [%],synaptosome phagocytosis (Human fetal astrocytes [4]; 1.39 µM) [%],synaptosome phagocytosis (Human fetal astrocytes [4]; 2.78 µM) [%],synaptosome phagocytosis (Human fetal astrocytes [4]; 5.56 µM) [%],synaptosome phagocytosis (Human fetal astrocytes [4]; 11.11 µM) [%],synaptosome phagocytosis (Human fetal astrocytes [4]; 22.22 µM) [%]
O=c1n(CCCN2CCN(c3cccc(Cl)c3)CC2)nc2ccccn12 [Trazodone hydrochloride],-17.7,-11.7,-6.7,-18.8,-37.9,-33.1,27,-4.3,16.1,15.3,82.1,118,91.3,97.7,118,88.1,105,102,80.9,80.1
CC(C)NCC(O)c1ccc(O)c(O)c1 (racemic) [(±)-Isoproterenol hydrochloride],23.2,8.6,5.2,23.8,16.8,13.4,-34.2,-9.1,10.1,-13.1,109,146,97.6,96.5,66,92.6,72.3,104,104,101
CN(C)CCN(Cc1cccs1)c1ccccn1 [Methapyrilene hydrochloride],-22.3,4.1,-13.6,3.8,8.4,-16.9,38.9,-0.6,55.4,18.4,66.3,122,57,97.5,90.8,109,114,92.4,80.3,157
CC(=O)Oc1ccccc1C(=O)O [Acetylsalicylic acid],-23.5,-19.5,-13.4,-15.7,-1.9,-7.5,17.4,5.1,-21.1,0.6,97.9,96.2,98.9,124,107,106,96.6,96.4,92.8,107
CC(C)[N+](C)(CCOC(=O)C1c2ccccc2Oc2ccccc21)C(C)C [Propantheline bromide],-28.3,-20.1,-6.2,-13.4,-0.8,-1.5,-15.9,-31.4,-0.3,23.4,102,107,120,107,110,90,132,120,130,121
N=C(N)NC(=O)Cc1c(Cl)cccc1Cl [Guanfacine hydrochloride],7.9,-41,8.2,-13,9.6,19.4,-39.7,25.5,-9.5,9.7,123,88,117,70.1,91.6,106,93.1,117,113,106
Nc1nc2c(ncn2COCCO)c(=O)[nH]1 [Acyclovir],-12.5,-19.5,-31.8,-8.5,-7.9,-23.4,-28.6,1.2,29.8,10.3,109,113,125,118,118,91.8,112,104,90,120
CCCN(CCC)C(=O)C(CCC(=O)O)NC(=O)c1ccccc1 (stereo not given) [Proglumide],0.5,-3.2,15.5,9.5,11.2,-5,12.5,7.5,3.9,-4,104,117,99.5,96.1,103,97.2,74.4,121,89.6,105
Cc1cc(C(C)(C)C)c(O)c(C)c1CC1=NCCN1 [Oxymetazoline hydrochloride],-22.3,10.4,7,0,11.2,4.1,-6.4,-3.3,-3.1,21,110,113,106,81.8,89.8,95.7,129,93.2,122,112
CC(CN1c2ccccc2Sc2ccccc21)N(C)C (stereo not given) [Promethazine hydrochloride],-16.6,10.4,11.7,21,23.4,-6.6,2.1,-2.1,-10.9,5.1,88.9,111,82.1,80.5,60,84.9,91.7,94.3,78.8,64.8
O=C(c1ccccc1)c1ccc2n1CCC2C(=O)O (stereo not given) [Ketorolac tris salt],-17.5,-0.5,6.1,24.8,8.4,-29,12.7,1.9,29.8,7.8,106,131,111,141,87.8,84.6,89.2,119,119,87.2
CC(C)NC[C@H](O)COc1cccc2ccccc12 [(S)-Propranolol hydrochloride],14.6,-13.5,-10.7,-9.6,-8.2,-11,-32.2,-30,-0.3,25.2,104,82.8,91.9,61.3,88.6,118,89.1,91.1,106,88.9
COC(=O)C1=C(C)NC(C)=C(C(=O)OC)C1c1ccccc1[N+](=O)[O-] [Nifedipine],3.3,3.2,13.6,19,0.9,30.7,2.7,11.7,15.6,29.5,109,113,110,88.4,78.1,100,87.8,73.3,107,87.3
Cc1ccc(C(=O)Nc2ccc(S(=O)(=O)O)c3cc(S(=O)(=O)O)cc(S(=O)(=O)O)c23)cc1NC(=O)c1cccc(NC(=O)Nc2cccc(C(=O)Nc3cc(C(=O)Nc4ccc(S(=O)(=O)O)c5cc(S(=O)(=O)O)cc(S(=O)(=O)O)c45)ccc3C)c2)c1 [Suramin hexasodium],-23.3,-15.3,0.6,11.1,6.6,9.1,-3.4,3.3,21.1,2.3,95.4,138,143,134,168,94.1,103,125,121,136
CCN(CC)CCOC(=O)C1(C2CCCCC2)CCCCC1 [Dicyclomine hydrochloride],14.6,-2.6,12.3,-7.6,4.8,-0.9,-21.4,-0.7,4.3,-24.6,114,109,105,73.5,70.5,105,109,107,95.4,106
Cc1cnc(NC(=O)C2=C(O)c3ccccc3S(=O)(=O)N2C)s1 [Meloxicam sodium],-5.2,10.4,15.5,1,22.4,20.2,-23.8,-6.2,47.5,2.8,126,81.6,117,110,99.6,73.1,107,78.7,114,93.8
OCCN1CCN(CCCN2c3ccccc3Sc3ccc(Cl)cc32)CC1 [Perphenazine],-6.2,0.5,-12.7,13.3,10.3,-15.3,34.1,6.8,43,32.1,93.8,123,107,74.1,44.8,91.1,73.7,95.1,86.6,38.3
CCC1(C)CC(=O)NC1=O (stereo not given) [Ethosuximide],-18.8,-20.5,-20.6,-2.2,-21.6,0,-27,-6.8,-8.9,11.5,149,91,93.6,77.1,120,95,114,112,86.9,97.3
CN1CCC[C@H]1c1cccnc1 [(-)-Nicotine hydrogen tartrate salt],-20.4,-26.7,-12.7,-12.4,-1.9,14.9,11.3,-8.4,38.1,23.3,126,79.6,79.7,111,146,112,125,86.8,98.1,112
CC(C)NCC(O)COc1ccc(CC(N)=O)cc1 (racemic) [(±)-Atenolol],7,-11.4,-11.5,-7.6,2.6,-34,-0.9,-12.9,-23.4,6.8,100,82,78.5,89.4,96.9,143,120,102,96.2,127
CN(C)C(=O)C(CCN1CCC(O)(c2ccc(Cl)cc2)CC1)(c1ccccc1)c1ccccc1 [Loperamide hydrochloride],-23.2,-0.5,0.5,0,15.9,-38.2,-14.3,0.9,-34.4,-0.6,65.1,66.8,89.3,96.6,30.4,75.7,75.3,69.4,69.9,71.2

# 2 compounds from above, showing only synaptosome phagocytosis (Human fetal astrocytes [3]; 5.56 µM) [%], loss of total cells (Human fetal astrocytes [2]; 5.56 µM) [%] and loss of total cells (Human fetal astrocytes [1]; 11.11 µM) [%].
SMILES,synaptosome phagocytosis (Human fetal astrocytes [3]; 5.56 µM) [%],loss of total cells (Human fetal astrocytes [2]; 5.56 µM) [%],loss of total cells (Human fetal astrocytes [1]; 11.11 µM) [%]
Nc1nc2c(ncn2COCCO)c(=O)[nH]1 [Acyclovir],125,1.2,-8.5
CN1CCC[C@H]1c1cccnc1 [(-)-Nicotine hydrogen tartrate salt],79.7,-8.4,-12.4
